Values quoted from earlier work as cited in patent publication US20110135768A1, “DIHYDRO-ISOALPHA ACID AND ACACIA NILOTICA EXTRACT BASED COMPOSITIONS AND METHODS FOR WEIGHT MANAGEMENT” (Metaproteomics, LLC, priority 2009, published 2011).
At least one compound was matched to its structure with a doubt left.

Details: patients with T2DM

For CCCCCCCCCCCCCCCC(=O)N[C@@H](CCC(=O)NCCCC[C@H](NC(=O)[C@H](C)NC(=O)[C@H](C)NC(=O)[C@H](CCC(N)=O)NC(=O)CNC(=O)[C@H](CCC(=O)O)NC(=O)[C@H](CC(C)C)NC(=O)[C@H](Cc1ccc(O)cc1)NC(=O)[C@H](CO)NC(=O)[C@H](CO)NC(=O)[C@@H](NC(=O)[C@H](CC(=O)O)NC(=O)[C@H](CO)NC(=O)[C@@H](NC(=O)[C@H](Cc1ccccc1)NC(=O)[C@@H](NC(=O)CNC(=O)[C@H](CCC(=O)O)NC(=O)[C@H](C)NC(=O)[C@@H](N)Cc1cnc[nH]1)[C@@H](C)O)[C@@H](C)O)C(C)C)C(=O)N[C@@H](CCC(=O)O)C(=O)N[C@@H](Cc1ccccc1)C(=O)N[C@H](C(=O)N[C@@H](C)C(=O)N[C@@H](Cc1c[nH]c2ccccc12)C(=O)N[C@@H](CC(C)C)C(=O)N[C@H](C(=O)N[C@@H](CCCNC(=N)N)C(=O)NCC(=O)N[C@@H](CCCNC(=N)N)C(=O)NCC(=O)O)C(C)C)[C@@H](C)CC)C(=O)O [liraglutide], the blood pressure is given as “reduced” and the triglyceride content is given as “reduced”.
